Test results: PMC7847540
Results are given in words; binding and its absence hold for the method and conditions named. Binding seen in cells or lysates may run through a third protein. These calls come from enrichment with a bait or labelling near it, and not all partners need be listed. A no says only that the protein was not detected with the bait.

Protein sequences, listed by entry. Tags and fused reporters are not part of them. Lines headed by an entry give the natural chain unless they say otherwise; changes in a name come on top.
UniProt P9WPB9, whole entry, stated change not applied: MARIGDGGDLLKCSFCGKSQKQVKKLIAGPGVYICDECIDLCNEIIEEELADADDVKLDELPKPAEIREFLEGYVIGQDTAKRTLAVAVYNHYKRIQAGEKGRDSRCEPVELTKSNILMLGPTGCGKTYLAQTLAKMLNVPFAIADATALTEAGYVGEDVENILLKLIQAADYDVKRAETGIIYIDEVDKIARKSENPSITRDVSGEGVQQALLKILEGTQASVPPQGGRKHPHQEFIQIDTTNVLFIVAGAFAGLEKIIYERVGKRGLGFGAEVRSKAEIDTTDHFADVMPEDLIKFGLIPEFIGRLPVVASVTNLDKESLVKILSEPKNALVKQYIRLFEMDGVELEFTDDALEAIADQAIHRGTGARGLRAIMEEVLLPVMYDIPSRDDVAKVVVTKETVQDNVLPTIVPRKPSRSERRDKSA

Target: N-terminally 6×His-tagged ClpX (His6ClpX) from M. tuberculosis, overproduced in M. smegmatis (M. tuberculosis) (UniProt P9WPB9)
Test: affinity purification with mass spectrometry

B1: RadA (DNA repair protein), M. smegmatis (protein, UniProt A0R563 1-466)
chain: MAGSKIRSQYRCSECQHVAPKWVGRCANCGTWGTVDEVAVLAGNNKLNGAARRSVAPTSPAVPITSIDPGVTRHYPTGVSELDRVLGGGLVAGSVTLLAGDPGVGKSTLLLEVANRWAHSGKRALYLSGEESAGQIRLRAERTGCTHDQVYLAAESDLQIALGHIDEVKPSLVVVDSVQTMSTTEADGVTGGVTQVRAVTTSLTAYAKAAVGDPAVAMILVGHVTKDGAIAGPRSLEHLVDVVLHFEGDRASSLRMVRGVKNRFGAADEVGCFQLHDNGIECVSDPSGLFLDQRPLAVPGTAVTVTLDGKRPMIGEVQALVSPPAGPPRRAVSGIDSARAAMIGAVLQTRCRMPINSNDLYLSTVGGMRLTDPSADLAVALAIASAYFDIAMPMKAIAIGEVGLAGDLRRVTGMDRRLSEAARLGFTTAVVPPGVTSAPAGLKVVAADNIRAAVQTMREIAIAGAQ
For B1, which binding is on record?
Its binding is “binds”.

B2: RuvC (Holliday junction resolvase), M. smegmatis (protein, UniProt A0QWH4 1-185)
chain: MRVMGVDPGLTRCGLSMIESGKGRQVIALDVDVVRTPADTPLQKRLLTISDAAEHWMDTHRPDVIAIERVFANQNANTAMGTAQAGGVIALAAAKRDIEVHFHTPSEVKAAVTGSGRADKSQVTEMVTRILALQAKPTPADAADALALAICHCWRAPMIARMAAAEAMAEEQRRKFQAKIKAARG
How did the binding turn out when B2 was run?
Its binding is “binds”.

B3: RecC, M. smegmatis (protein, UniProt A0QS30 1-1085)
chain: MALHLHRAERTDLLADGLAALLSDPLPDPFATELVLVPAKGVERWLSQRLSNRLGVCAAVEFRNPRSLIAELTGTADDDPWSPDAMVWPLLGVIDESLDEPWCATLATHLGHFEMGEEYELRQGRRYAVARRLAGLFASYARQRPQLLVDWDGLPDDLAWQKALWQALCERIDADPPHIRHAKTLVQLHESPTDLPQRLSLFGHTRLPATEVELLTALATHHDLHLWLPHPSDTLWQALSTRKGPLPRREDTSHRDVGHPLLATLGRDLREMQRLLPEPDTDEFRGRSEYPDTLLGWLQSDIAADAVRPQGRHHRREDRSIQVHSCHGPSRQIDVLREVLLGLLADDPTLEPRDILVMCPDIETYAPLITAGFGLGDVVPRTRGAHINLSAHPAHKLRVRLADRALVQTNPLLAVAAQLLALAGGRATASEVLNLAESAPVRARFGFTDDDLDAITAWTREANIRWGFDQEHRRPYGVEFLHNTWRFGIDRVLAGVAMSDDSHAWLGTTLPLDDVSSNRVELAGRFADFVEKLRRTVDQLSGTRPLHEWLDALTAGIDALALADEDWPAAQMQREFAEITARAGDTATSLRLADVRALLDRHLAGRPTRANFRTGTLTVCTMVPMRSVPHRVVCLVGLDDGVFPRLGAVDGDDALARDPMTGERDIRSEDRQLLLDAILAATQTLVITYTGANEYSGQARPPAVPLAELIDTLKITTEDSALDVLTRHPLQPFDKRNVIPGALVPDEPFTFDQTALVAARASSGERAMRPAFFSDPLPPPLPDDVALEDLLNFFKDPVKGFFRALDYTLPWDVEGVSDVMPVDIDALEEWTVGDRMLSDILRGMTPAAAQQAEWRRGTLPPGQLGWRRAIALRDQCALLAAEALGFRDTDGQAYDVDIDLGGGRRLTGTVSPVFGDRLVSVTYSKLGGKHLLQSWIPLLALAAGYPDRDWLAVCIGRPARGTTPRVEGLGGPDNPVDLLADLVAIYDAGRREPLPLPVKTSYAWAEARHCGDDPEQKAGFRWRSGRYPGEDAEPAHVRAWGRDAWLRDLMQPLRPGEEFEGETHRLGAYSSRLWLPLLRAERPVR
How did the binding turn out when B3 was run?
The binding was “binds”.

B4: RecA, M. smegmatis (protein, UniProt Q59560 1-349)
chain: MAQQAPDREKALELAMAQIDKNFGKGSVMRLGEEVRQPISVIPTGSISLDVALGIGGLPRGRVIEIYGPESSGKTTVALHAVANAQAAGGIAAFIDAEHALDPEYAKKLGVDTDSLLVSQPDTGEQALEIADMLVRSGALDIIVIDSVAALVPRAEIEGEMGDSHVGLQARLMSQALRKMTGALNNSGTTAIFINQLREKIGVMFGSPETTTGGKALKFYASVRLDVRRIETLKDGTDAVGNRTRVKVVKNKVSPPFKQAEFDILYGQGISREGSLIDMGVEHGFIRKSGSWFTYEGEQLGQGKENARKFLLENTDVANEIEKKIKEKLGIGAVVTAEADDVLPAPVDF
B4 was tested. Which binding did it give?
The binding was “binds”.

B5: substrate adaptor SmpB, M. smegmatis (protein, UniProt A0QU63 1-161)
chain: MTKKSASSNNKVVATNRKARHNYTILDTYEAGIVLMGTEVKSLREGQASLADAFATVDDGEIWLRNVHIAEYHHGTWTNHAPRRNRKLLLHRKQIDNLIGKIRDGNLTLVPLSIYFTDGKVKVELALARGKQAHDKRQDLARRDAQREVIRELGRRAKGKI
With B5 as the binder, how does the binding read?
Its binding is “no binding”.

B6: RecD, M. smegmatis (protein, UniProt A0QS28 1-554)
chain: MSLLEAFAEILEPADVHVAQRLTVLADEPDASVELAVALAVRALRGGSVCVDLRSVAGQVELPDLPWPDPDAWLAALAASPLLGQPPVLRLFGDLLYLDRYWLEEQQVCDDVLALVSARPGGAVPDVSRLFGAGFEEQRAAAKVALSQGLTVLTGGPGTGKTTTVARLLALLAEQAALAGKPSPRIALAAPTGKAAARLQEAVQLEIDQLDLIERRRLTGLHATTLHRLLGPRPDTSSRFRHHRANRLPHDVIVVDETSMVSLTMMARLLEAVRPQTRLVLVGDPDQLASVEAGAVLADLVEGLGSRGVAELKTSHRFGESIGALASAIRTGDADAALAVLAAGGEHIEWVHEDPVEQLREVVVPHAMRLRQAAILGDQREALATLDEHRLLCAHRRGPAGVDHWNRQVQRWLGEETGEPLWGSWYVGRPILVTANDYGLKLYNGDTGVVVATPDGMRAVIGDAGTFATGRLTDVETMHAMTIHKSQGSQADEVTVLLPSEDSRLLTRELFYTAVTRAKTRVRVVGAEAEVRAAIERQAVRATGLRKRLRPAGV
B6 was tested. Which binding did it give?
The binding was “binds”.
